Some compounds share one wording; it may come from a single statement.
How the values were obtained:
[1] = test system: Nocardioides sp. strain MTD22; assay: Decomposition test of triazine compounds using strain MTD22 in inorganic liquid medium (HPLC); conditions: 6 days after start of incubation; 1 to 8 mg/L initial; 30° C., 120 rpm; culture supernatant by HPLC
[2] = test system: Arthrobacter aurescens strain TC1; conditions: cited from earlier work
[3] = test system: simetryn-decomposing bacterium; assay: Shaking culture and limiting-dilution subculture of enriched simetryn-decomposing bacterium

SMILES	concentration of the agrichemical (triazine compound) in the culture solution [1]	growth of strain in medium containing compound as sole source of nitrogen [2]	decomposition of simetryn in culture solution ([3]; charcoal particle from enrichment apparatus, medium of Table 4, 30° C. with shaking)	time to complete decomposition of simetryn ([3]; highly-diluted subculture solution after about 1 year of subculture, simetryn about 20 mg/L)
CCNc1nc(NC(C)C)nc(SC)n1 [ametryn, 2-ethylamino-4-isopropylamino-6-methylthio-s-triazine]	equal to or less than the detection limit	grew		
CCNc1nc(NC(C)C)nc(OC)n1 [atraton, 2-ethylamino-4-isopropylamino-6-methoxy-s-triazine]	equal to or less than the detection limit			
CCNc1nc(Cl)nc(NC(C)C)n1 [atrazine, 2-chloro-4-ethylamino-6-isopropylamino-s-triazine]	equal to or less than the detection limit			
CNc1nc(NC(C)C)nc(SC)n1 [desmetryn, 2-isopropylamino-4-methylamino-6-methylthio-s-triazine]	equal to or less than the detection limit			
CCNc1nc(NC(C)C(C)C)nc(SC)n1 (centres unmarked) [dimethametryn, 2-(1,2-dimethylpropylamino)-4-ethylamino-6-methylthio-s-tr iazine]	equal to or less than the detection limit			
CSc1nc(NC(C)C)nc(NC(C)C)n1 [prometryn, 2,4-bis(isopropylamino)-6-methylthio-s-triazine]	equal to or less than the detection limit	grew		
CC(C)Nc1nc(Cl)nc(NC(C)C)n1 [propazine, 2-chloro-4,6-bis(isopropylamino)-s-triazine]	equal to or less than the detection limit			
CCNc1nc(Cl)nc(NCC)n1 [simazine, 2-chloro-4,6-bis(ethylamino)-s-triazine]	equal to or less than the detection limit			
CCNc1nc(NCC)nc(SC)n1 [simetryn, 2,4-bis(ethylamino)-6-methylthio-s-triazine]	equal to or less than the detection limit		decomposed little by little	about 1 week
CCNc1nc(Cl)nc(NC(C)(C)C)n1 [terbuthylazine, 2-tert-butylamino-4-chloro-6-ethylamino-s-triazine]	equal to or less than the detection limit			
